Binding data for 2 molecules are collected here from patent US20210277142A1.

No constants are given. Whether binding was seen depends on the method and setting. Some entries that bind do so weakly or less than the wild type. For some assays here: Tags and fused reporters may be left off the sequences shown.

The target in assay [1] is T1, recombinant His-tagged human Mcm5 fragment (human) (UniProt P33992).
T1 sequence: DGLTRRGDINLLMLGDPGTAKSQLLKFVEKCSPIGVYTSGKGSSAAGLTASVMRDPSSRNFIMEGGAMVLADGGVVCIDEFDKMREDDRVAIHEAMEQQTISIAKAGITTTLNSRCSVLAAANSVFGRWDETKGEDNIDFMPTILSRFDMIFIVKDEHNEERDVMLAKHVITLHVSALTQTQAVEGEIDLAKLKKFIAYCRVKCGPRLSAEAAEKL
In words: ELISA, MAb dilution on antigen-limiting 25 ng/well Mcm5 on Ni-NTA plate. (An ELISA detects its analyte on a solid surface through an enzyme-linked reagent.)

In assay [2] the target is T1, recombinant His-tagged human Mcm5 fragment (human). In words: colorimetric screening ELISA on His-tagged Mcm5 on Ni-NTA plate.
Assay [3] addresses T2, Mcm5-derived 15 aa microarray peptides with the consensus motif WDETKGE (human).
T2 sequence (peptide): WDETKGE
In words: peptide microarray, antibody at 1 and 10 ug/ml, goat anti-mouse DyLight680 detection.

The target in assay [4] is T3, Mcm5-derived 15 aa microarray peptides with the consensus motif DDRVAIH (human).
T3 sequence (peptide): DDRVAIH
Described as above.

B1: mouse monoclonal IgG antibody 12A7 (antibody, V domains shown)
VH: QQDLQQSGPGILQPTQTLSLTCSFSGFSLSTSGMGVSWIRQSSNMGLEWLAHIFWDDDKRYNPSLRSRLTLSKDTSSSQVFLMITSVSTADSATYYCARRSDYNYYSMDYWGQGTAVTVSS
VL: DIMLTQSPLSLSVTLGDQASISCRSSQNLVQSNGNTYLTWYLQKPGQSPKVLINKVSNRFYGVPDRFSGSGSGTDFTLRISRVEAEDLGIYFCSQSTRVPYTFGGGTKLEIRR
Turning to B1, the binding result in assay [1], in assay [2] and in assay [3] was “binds” throughout.

B2: mouse monoclonal IgG antibody 4B4 (antibody, V domains shown)
VH: VKLQESGGGLVKPGGSLKLSCAASGFTFSNYAMSWVRQNPEKRLEWVATISRGGSYTYYPDSVKGRFTISRDNAKNTLYLQMNSLRSEDTAMYFCARHGYNYDDGAWFANWGQGTLVTVSA
VL: DIMLTQSPSSLSASLGERVSLTCRASQDIGSSLNWLQQEPDGTIKRLIYATSSLDSGVPKRFSGSRSGSDYSLTISSLESEDFVDYYCLQYASSPPTFGGGTKLEIK
In the case of B2, the binding result in assay [4] and in assay [3] was “binds” each time.
